# Test results reported in PubChem BioAssay AID720504 (National Center for Advancing Translational Sciences (NCATS), 2013).
# Chains of the proteins cited; added tags and fusions are not shown.
# UniProt P53350, whole entry, looked up: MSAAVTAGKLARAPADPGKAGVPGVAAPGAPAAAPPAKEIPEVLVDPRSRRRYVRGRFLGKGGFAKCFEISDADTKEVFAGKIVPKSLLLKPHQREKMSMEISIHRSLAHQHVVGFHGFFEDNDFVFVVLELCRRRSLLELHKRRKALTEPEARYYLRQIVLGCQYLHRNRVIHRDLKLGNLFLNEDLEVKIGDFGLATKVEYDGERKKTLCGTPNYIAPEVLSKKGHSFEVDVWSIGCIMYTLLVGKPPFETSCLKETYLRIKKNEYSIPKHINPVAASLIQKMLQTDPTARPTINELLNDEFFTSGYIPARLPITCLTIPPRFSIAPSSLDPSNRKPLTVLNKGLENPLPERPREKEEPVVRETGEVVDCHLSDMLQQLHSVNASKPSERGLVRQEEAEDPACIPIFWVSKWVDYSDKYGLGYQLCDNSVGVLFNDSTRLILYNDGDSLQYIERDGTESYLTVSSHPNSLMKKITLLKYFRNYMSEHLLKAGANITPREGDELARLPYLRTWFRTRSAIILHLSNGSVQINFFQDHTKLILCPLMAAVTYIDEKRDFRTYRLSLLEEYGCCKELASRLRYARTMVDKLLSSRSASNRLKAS
# The whole screen tested about 360,000 compounds, of which about 10,000 (2.8%) were called active. The shares of active, inactive and inconclusive entries below differ from those in the screen. Calls follow the shape of the dose curve; as a rule, active = well fitted inhibition curve with a large enough effect; inconclusive = small, poorly fitted or top-dose-only effect; inactive = flat fitted curve, though single readings scatter. Where the call is inconclusive, the potency comes from a doubtful curve fit.
# Target: Serine/threonine-protein kinase PLK1 (Homo sapiens) (UniProt P53350)
# Test: qHTS for Inhibitors of PLK1-PDB (polo-like kinase 1 - polo-box domain): Primary Screen; also: nearly all actives have a fitted effect of over 65% in size; as to max response, negative = inhibition: series mostly up to about 57 µM
# Details: Plk1 PBD binding of FITC phosphopeptide, fluorescence polarization
# % is scaled to controls: 0 for no effect and ±100 for the full control effect; potency is read from the fitted curve at half-maximal effect.
Structure (SMILES),Potency,"max response, negative = inhibition"
CC[N+]1(C)CCC(O)(/C=C/c2ccccc2)C(C(=O)/C=C/c2ccccc2)C1 (stereo unspecified),"inconclusive: 0.532 µM [inhibitor, full curve, poor fit]",
OCCOCCn1c(C(CO)Nc2nc(-c3cccc(Br)c3)cs2)nc2ccccc21 (stereo unspecified),"inconclusive: 29.9 µM [inhibitor, partial curve, poor fit]",
CC(=O)c1ccc2c3c(cccc13)C(=O)N(CCc1ccccc1)C2=O,,inactive: -19.6%
O=C(c1ccc([N+](=O)[O-])cc1)N1CCN(c2ncc(Br)cn2)CC1,active: 26.7 µM,
COc1cc(C(=O)/C=C/c2cccnc2)c([N+](=O)[O-])cc1OC,,inactive: -20.2%
CCOc1ccc(-c2cc(N)n(S(=O)(=O)c3ccc(OC)cc3)n2)cc1,,inactive: 5.84%
O=c1[nH][nH]c2c1[C@H](CCc1cccc(Cl)c1)O[C@H](C1CC1)C2,,inactive: -18.4%
COc1ccc2c(=O)cc(C(F)(F)C(F)(F)F)oc2c1,"inconclusive: 37.7 µM [inhibitor, single point]",
CC(=O)NC(CC(=O)Nc1cccc(S(=O)(=O)N2CCCCC2)c1)c1ccccc1 (stereo unspecified),,inactive: -3.47%
CC(NC(=O)COC(=O)C1=COCCO1)C12CC3CC(CC(C3)C1)C2 (stereo unspecified),"inconclusive: 23.8 µM [inhibitor, single point]",
CC1Cc2cc(S(=O)(=O)N3CCN(c4cccc(Cl)c4)CC3)ccc2N1C(=O)C1CC1 (stereo unspecified),,inactive: -8.45%
COc1ccc([C@H]2CC(=O)C=C(c3cccc(C(F)(F)F)c3)C2)cc1,active: 26.7 µM,
CCCCn1c(O)c(/C=C/C=C/C=Nc2ccccc2)sc1=S,"inconclusive: 33.6 µM [inhibitor, partial curve]",
Nc1nc2c(s1)COc1ccccc1-2,active: 18.9 µM,
O=C(N[C@@H](Cc1ccc(O)cc1)C(=O)O)c1ccncc1,"inconclusive: 21.2 µM [inhibitor, single point]",
COc1ccnc(N2CCN(c3ccc(Cl)cc3)CC2)c1C#N,,inactive: 5.63%
Cn1cc(Br)c(C(=O)NNC(=O)c2ccc(Cl)cc2)n1,,inactive: 5.48%
CC(C(Sc1ccccc1N)c1ccccc1)[N+](=O)[O-] (stereo unspecified),active: 1.89 µM,
COc1cc(/C=C(\C#N)C(=O)Nc2cccc(C(=O)O)c2)ccc1OCc1ccc(F)cc1,"inconclusive: 29.9 µM [inhibitor, single point]",
O=C(NCCN1CCC(n2c(=O)[nH]c3ccccc32)CC1)c1cccnc1Cl,,inactive: -2.02%
CCOC(=O)CN1C(=O)S/C(=C\c2ccc3c(c2)OCO3)C1=O,,inactive: 2.81%
CC(=O)N1N=C2/C(=C/c3ccccc3)CCCC2C1c1ccccc1 (stereo unspecified),active: 26.7 µM,
Cc1ccc(Nc2c(-c3ccccn3)nc3cccc(C)n23)cc1,"inconclusive: 29.9 µM [inhibitor, partial curve]",
Cc1cnn(C(=S)NCc2ccc(Cl)cc2)c1,"inconclusive: 18.9 µM [inhibitor, partial curve]",

Structure (SMILES),Potency,"max response, negative = inhibition"
NC(=S)N/N=C/c1c[nH]c2ccc(OCc3ccccc3)cc12,"inconclusive: 23.8 µM [inhibitor, partial curve]",
O=C(NCC1CCCO1)[C@@H]1CSC2c3ccccc3C(=O)N21 (stereo partly specified),"inconclusive: 26.7 µM [inhibitor, partial curve]",
CCN1CCN(C(CNS(=O)(=O)c2ccccc2)c2ccccc2)CC1 (stereo unspecified),"inconclusive: 10.6 µM [inhibitor, partial curve]",
CCn1cc(/C=N/O)c(C)n1,"inconclusive: 21.2 µM [inhibitor, single point]",
CCc1cccc(C)c1NC(=S)NCC1CCN(c2ccc(OC)cc2)C1 (stereo unspecified),"inconclusive: 23.8 µM [inhibitor, single point]",
COc1cccc(CN2CCN(C(=O)[C@H]3O[C@@H](n4cnc5c(N)ncnc54)[C@H](O)[C@@H]3O)CC2=O)c1,,inactive: -10.6%
CCCNC(=O)C1(C)CCCN(C(=O)c2ccc(OC(F)F)cc2)C1 (stereo unspecified),,inactive: -5.98%
CC1=NN(c2ccccc2)C(=O)/C1=C\c1cn(CCC#N)nc1-c1ccc(Cl)cc1,,inactive: 0%
Cn1c(Cc2cccs2)n[nH]c1=S,active: 26.7 µM,
CC(=O)NCc1ccc(C(=O)CSc2nnc(-c3ccncc3)n2Cc2ccccc2)o1,"inconclusive: 21.2 µM [inhibitor, partial curve]",
Cc1nc2ccc(-c3nc4ccccc4o3)cc2[nH]1,,inactive: -10.8%
c1ccc(COc2cccc(-c3cc4nc(NCCCn5ccnc5)ccn4n3)c2)cc1,,inactive: 4.18%
Cc1ccccc1-n1c(SCC(=O)N/N=C/C=C/c2ccccc2[N+](=O)[O-])nc2ccccc2c1=O,,inactive: -22.5%
O=C(C1=C(O)C(=O)N(c2nccs2)C1c1ccccc1)c1cc2ccccc2o1 (stereo unspecified),"inconclusive: 1.06 µM [inhibitor, full curve]",
CC(C)(C)C(=O)NC(=S)NCCc1ccccc1,"inconclusive: 26.7 µM [inhibitor, partial curve]",
CCCCCCCN1CCC(=O)N([C@H](CO)c2ccccc2)CC1,,inconclusive: -30.4% [inhibitor]
COc1cc(/C=C2\C(=N)N3N=C(S(C)(=O)=O)SC3=NC2=O)cc(OC)c1OCCOc1ccc(C)cc1,active: 21.2 µM,
COC(=O)c1cc(=O)n(Cc2ccc3c(c2)OCO3)c(=Nc2ccc(F)cc2)s1,,inactive: -11%
COc1ccc(-c2n[nH]c(=S)n2-c2ccc3c(c2)OCCO3)cc1OC,,inactive: -11.8%
C/C(=N\Nc1nc(C(C)(C)C)cs1)c1ccc(O)cc1,"inconclusive: 26.7 µM [inhibitor, partial curve]",
CC(C)C(=O)N=C1NC(=O)CS1,,inactive: -14.2%
COC(=O)c1c(NC(=O)CC2Nc3cc(C)c(C)cc3NC2=O)sc(C)c1C (stereo unspecified),"inconclusive: 8.44 µM [inhibitor, partial curve]",
COc1ccc(N2C(=O)CC(Sc3n[nH]c(-c4cccc(C)c4)n3)C2=O)cc1 (stereo unspecified),"inconclusive: 21.2 µM [inhibitor, partial curve]",
CC(=O)Nc1ccc(SCC(=O)c2ccc(Br)s2)cc1,active: 4.74 µM,

Structure (SMILES),Potency,"max response, negative = inhibition"
C#CCOCCOCCOCCNc1nc(N2CCN(C(=O)[C@H](CCCN=C(N)N)n3cc(C(N)[C@H](C)CC)nn3)CC2)nc(N2CCN(C(=O)[C@H](CC(N)=O)n3cc(C(N)[C@@H](C)CC)nn3)CC2)n1 (stereo partly specified),"inconclusive: 37.7 µM [inhibitor, single point]",
CC(=O)Nc1ccc(S(=O)(=O)Nc2nc3ccccc3nc2Nc2cccc(O)c2)cc1,"inconclusive: 67 µM [inhibitor, partial curve]",
CCOC(=O)N1CCN(C(=O)/C=C/c2cccc([N+](=O)[O-])c2)CC1,active: 29.9 µM,
O=C(Nc1nnc(-c2ccc3c(c2)CCCC3)o1)c1c(F)cccc1F,,inactive: -18.7%
COC(=O)c1cc(C(=O)OCC(=O)NCc2cccs2)cc([N+](=O)[O-])c1,,inactive: -9.3%
Cc1ccc(-c2nnc3sc(CCc4ccccc4)nn23)cc1,"inconclusive: 29.9 µM [inhibitor, partial curve]",
Cc1nonc1C(=O)N/N=C/c1ccccc1,active: 23.8 µM,
Cc1c(-c2ccccc2)nc2ccccc2c1C(=O)NCc1cccs1,"inconclusive: 29.9 µM [inhibitor, partial curve]",
S=c1[nH]nc(-c2ccccn2)n1/N=C/c1cccc(Cl)c1,"inconclusive: 26.7 µM [inhibitor, partial curve]",
CCN1CCc2c(C#N)c(N3CCOCC3)nc(NCCO)c2C1,"inconclusive: 26.7 µM [inhibitor, partial curve]",
CC1(C)CC(=O)C2=C(C1)c1c(ccc3ccccc13)NC2c1ccc(Br)o1 (stereo unspecified),"inconclusive: 26.7 µM [inhibitor, single point]",
O=C(CCc1nnc2ccc(NCc3ccccc3Cl)nn12)NC1CCCCC1,"inconclusive: 23.8 µM [inhibitor, partial curve]",
C=CCN(CC=C)C(=S)NC(=O)/C=C/c1ccccc1,active: 15 µM,
Cc1ccc(-c2cn(-c3ccccc3F)c(=S)[nH]2)cc1,"inconclusive: 37.7 µM [inhibitor, partial curve, poor fit]",
O=C(OCC(=O)c1ccc[nH]1)c1ccc(Cl)c(Cl)c1,,inactive: -13.2%
CCOC(=O)c1cc(C#N)c(SCC(=O)c2cc(C#N)c(SC)nc2C)[nH]c1=O,"inconclusive: 26.7 µM [inhibitor, partial curve]",
COc1ccc2cc3[n+](cc2c1O)CCc1cc2c(cc1-3)OCO2,"inconclusive: 29.9 µM [inhibitor, single point]",
COc1ccc(CCNC(=O)CN(c2cc([N+](=O)[O-])ccc2OC)S(C)(=O)=O)cc1OC,"inconclusive: 15 µM [inhibitor, partial curve]",
O=C(O)CCC(=O)Nc1ccc2c(c1)Cc1cc(NC(=O)CCC(=O)O)ccc1-2,"inconclusive: 23.8 µM [inhibitor, single point]",
Cc1ccc(NC(=O)c2ccccc2NS(=O)(=O)c2ccc(Cl)s2)cc1,"inconclusive: 18.9 µM [inhibitor, single point]",
COc1ccc(C2CC(=O)C(CS(=O)(=O)c3ccccc3)C(=O)C2)cc1 (stereo unspecified),"inconclusive: 21.2 µM [inhibitor, partial curve]",
COc1ccc(-n2ncc3c2CC(C)(C)CC3NC(=O)c2ccnn2C)cc1 (stereo unspecified),,inactive: 1.32%
Cc1ccc(Sc2ccc(S(=O)(=O)Nc3ccc(CC(=O)O)cc3)cc2)cc1C,"inconclusive: 29.9 µM [inhibitor, single point]",

# An excerpt taken from the entries so far, for reference:
Structure (SMILES),Potency,"max response, negative = inhibition"
CCOC(=O)N1CCN(C(=O)/C=C/c2cccc([N+](=O)[O-])c2)CC1,active: 29.9 µM,
O=C(Nc1nnc(-c2ccc3c(c2)CCCC3)o1)c1c(F)cccc1F,,inactive: -18.7%
COC(=O)c1cc(C(=O)OCC(=O)NCc2cccs2)cc([N+](=O)[O-])c1,,inactive: -9.3%
Cc1ccc(-c2nnc3sc(CCc4ccccc4)nn23)cc1,"inconclusive: 29.9 µM [inhibitor, partial curve]",
Cc1nonc1C(=O)N/N=C/c1ccccc1,active: 23.8 µM,
Cc1c(-c2ccccc2)nc2ccccc2c1C(=O)NCc1cccs1,"inconclusive: 29.9 µM [inhibitor, partial curve]",
S=c1[nH]nc(-c2ccccn2)n1/N=C/c1cccc(Cl)c1,"inconclusive: 26.7 µM [inhibitor, partial curve]",
CCN1CCc2c(C#N)c(N3CCOCC3)nc(NCCO)c2C1,"inconclusive: 26.7 µM [inhibitor, partial curve]",
CC1(C)CC(=O)C2=C(C1)c1c(ccc3ccccc13)NC2c1ccc(Br)o1 (stereo unspecified),"inconclusive: 26.7 µM [inhibitor, single point]",
O=C(CCc1nnc2ccc(NCc3ccccc3Cl)nn12)NC1CCCCC1,"inconclusive: 23.8 µM [inhibitor, partial curve]",
C=CCN(CC=C)C(=S)NC(=O)/C=C/c1ccccc1,active: 15 µM,
Cc1ccc(-c2cn(-c3ccccc3F)c(=S)[nH]2)cc1,"inconclusive: 37.7 µM [inhibitor, partial curve, poor fit]",
O=C(OCC(=O)c1ccc[nH]1)c1ccc(Cl)c(Cl)c1,,inactive: -13.2%
CCOC(=O)c1cc(C#N)c(SCC(=O)c2cc(C#N)c(SC)nc2C)[nH]c1=O,"inconclusive: 26.7 µM [inhibitor, partial curve]",
COc1ccc2cc3[n+](cc2c1O)CCc1cc2c(cc1-3)OCO2,"inconclusive: 29.9 µM [inhibitor, single point]",
